In paper PMC10163288:
The list shows a part of the results.

B1: il2ra_site1_1z92_sap_11_mot_HHH_b1_02970_000000195_0001_43_56_H_._09869709d06cb525cd55f400c7a8f8a0_0001_0001_0000300025_0000001_0_0001 (protein)
chain: SSSSDRHEEWLRRLVESVIRLLERSGDPAALELLEFLLRAARIAGDEELAREIERVLEEAGSSSS
B2: il2ra_site2_3nfp_sap_16_mot_HHH_b2_05976_000000001_0001_22_38_H_._HHH_b2_06191_af2_0001_0000600026_0000001_0_0001 (protein)
chain: SSSSDKAEEYLEAAIKLLEEAREAGDEEVAREHAEAAVLMAETHGNEELLEELRKILEELESSSS
B3: il2ra_site2_3nfp_sap_18_mot_HHH_b2_02944_000000124_0001_23_39_H_._d4ecb90dab11370dfe9ea0118649096c_0001_1_af2_0001_0000300022_0000001_0_0001 (protein)
chain: SSSSSDSEEYIRAALRLAEKAIEEGDPELAEKILRMVLKAAEDNGDPIREEIEKLLEELESSSSS
B4: il2ra_site1_1z92_sap_14_mot_HHH_b2_00305_000000015_0001_21_37_H_._HHH_b1_06628_af2_0001_0000200003_0000001_0_0001 (protein)
chain: SSSSDENKERLLRFLERNIRMAIENGNERALEWALRLLELLVKLHNDPEAERVLEELEELGSSSS
B5: il2ra_site2_3nfp_normal_mot_cdc2c7e6ec3782e52408388447766025_0001_000000024_0001_37_50_H_._HHH_b2_05893_0001_0000100003_0000001_0 (protein)
chain: SSSSSYEVAELAAEAVELFQEGNPEEAREVLEEALELARELGNEWAREYIEARLLLLERASSSSS
B6: il2ra_site1_1z92_normal_mot_01209686ea234b34325f918445e6eade_0001_af2_000000154_0001_18_33_H_._HHH_b2_04498_0001_0000100007_0000001_0_af2pred_0001_af2pred (protein)
chain: SSSSSDEEERIVEELIEELGGSEEEKEAAEYDAEAARKAGFSEENIKKALEAAIRRTLELSSSSS
B7: il2ra_site2_3nfp_sap_23_mot_2fddaf487ee4b636a798e6d487813806_0001_000000215_0001_37_52_H_._HHH_b1_04954_0001_0000400025_0000001_0_0001 (protein)
chain: SSSSEVEEYVKAAILLLRRAVEEGDEELVRRLAEVARQSAEDANNPELLEEVERLVKEFEESSSS
B8: il2ra_site2_2erj_sap_15_mot_HHH_b1_00449_000000059_0001_39_52_H_._HHH_b2_03041_af2_0001_0000100003_0000001_0_0001 (protein)
chain: SSSSSDEAEKLLEEAEELLEEGDTERVEELARRVYQLAYQNNDPELAAAAIELVHAVARRSSSSS
B9: il2ra_site2_3nfp_normal_mot_HHH_b1_00660_af2_000000090_0001_40_57_H_._HHH_b1_06964_0001_0000200008_0000001_0_af2pred_0001_af2pred (protein)
chain: SSSSSEEEEEVEELLRRAEELLKRGDPEQAKEVVDKAVLIAAQLNNFELFALINELLEKILSSSS
B10: il2ra_site1_1z92_sap_11_mot_HHH_b1_07881_000000176_0001_43_56_H_._HHH_b1_05185_0001_0000200007_0000001_0_0001 (protein)
chain: SSSDTREMARLAARIASKLAAEFGLSKEQILELLKLADELTLRGVSEEEVEQILRELAHELSSSS
B11: il2ra_site1_1z92_normal_mot_HHH_b1_00368_000000203_0001_23_39_H_._HHH_b2_06643_af2_0001_0000400027_0000001_0_af2pred_0001_af2pred (protein)
chain: SSSSSELEKNLRRVARLAAELAGLDEEEREELEEIAEELARRGVDFREAFKILDEVAEELGSSSS
B12: il2ra_site1_2b5i_sap_14_mot_HHH_b2_04131_000000150_0001_1_16_H_._HHH_b1_06166_0002_0000100005_0000001_0_0001_af2pred_dldesign_0_af2pred (protein)
chain: SSSSDEIHDEVERIYKKALEAFKAGKKEEAKKLLEEALRLAKEGNLPNAVADLERLLELLSSSSS
B13: il2ra_site1_1z92_sap_28_mot_64112f081ff6e37487a4373fed56e914_0001_1_000000006_0001_18_33_H_._10fb2a14c5b7c38646833f5309af78e7_0001_af2_0001_0000100002_0000001_0 … (protein)
chain: SSSDEEELEEFAEKVVRRLVEELGLSEEEEEILREAAELMIRRGYSEKNIKHALESLARRLSSSS
B14: il2ra_site2_3nfp_normal_mot_HHH_b1_00660_af2_000000090_0001_40_57_H_._HHH_b2_01268_0001_0000100006_0000001_0_af2pred_0001_1_af2pred_swapped (protein)
chain: SSSSSDEEEEEVEELLEEAKRIPDPEERERVLLRASTLAAEARDHELVALVLEVLEKLSSSSSSS
B15: il2ra_site2_3nfp_normal_mot_HHH_b1_00660_af2_000000090_0001_40_57_H_._HHH_b2_04195_0001_0000100015_0000001_0_af2pred_0001_af2pred (protein)
chain: SSSSSEEEEVRELLEQAKELLERGNPEEAEEILLRAAELAAKAQNFELFAIINLLLEKVDQSSSS
B16: il2ra_site2_3nfp_normal_mot_HHH_b1_06577_af2_000000152_0001_20_36_H_._HHH_b2_02897_af2_0001_0000500077_0000001_0 (protein)
chain: SSSSSEEEERVRELIEQAEELIKEGNPEEARKVLQEAALLAAELRDHELFALIQELIALLASSSS
B17: il2ra_site2_3nfp_sap_18_mot_HHH_b1_06589_000000230_0001_37_50_H_._5dfb590427825a07fdab5d2993dea047_0001_0001_0000100009_0000001_0_0001_af2pred_0001_af2pred (protein)
chain: SSSSSSDIEELKELLEELLKRGDEEELHHAVSEALALALDEGDEELEEIAREASDELNSSSSSSS
B18: il2ra_site1_1z92_normal_mot_9c3e5e2d2b9ffb70dc788f52fbfab6d5_0001_1_af2_000000067_0001_53_65_H_._6228ca5b8b091676f337a4c0a06dbe92_0001_0001_0000200024_0000001_0 … (protein)
chain: DKYLIEYLLKLIEKGDEELARKLIEKMLKASGIPPEEVEEIVEELLKLLKDGDPEKARELLRRAP
B19: il2ra_site2_3nfp_normal_mot_HHH_b1_05835_af2_000000128_0001_43_56_H_._a171aa182591c97700389b7a6f87ba9a_0001_af2_0001_0000200038_0000001_0 (protein)
chain: DEEEQLKELIKEGDPHAIFALAAILLFRLGNPEEANEELIEILKELLNVPPEEAREILEEVKEKG
B20: il2ra_site2_2erj_normal_mot_6ec3e94b46d95805cdcdc10c0c108f03_0001_af2_000000040_0001_36_50_H_._HHH_b2_01340_0001_0000400057_0000001_0 (protein)
chain: SSSSSLEELYELANLVMHLEYNGNPEEAEKVLEELRRLAEELGSEAARKVAEELQEHIEGSSSSS
B21: il2ra_site1_1z92_normal_mot_HHH_b2_03302_000000138_0001_21_37_H_._HHH_b1_05567_0001_0000100001_0000001_0 (protein)
chain: SSSSSDAEEALRELLEALERLLRRAGNPKTARQIEFILEALRLLGNEELVEKAEEILEELSSSSS
B22: il2ra_site1_1z92_normal_mot_HHH_b2_07217_af2_000000241_0001_1_19_H_._HHH_b1_01429_0001_0000200039_0000001_0 (protein)
chain: SSSSNVEEYHEELARALYKLIKLTGNPRSREQLEMFLHQARLLGDEELQRLIEELLEELRSSSSS
B23: il2ra_site1_1z92_sap_18_mot_HHH_b2_05038_af2_000000006_0001_39_52_H_._HHH_b2_05414_0001_0000600037_0000001_0_0001 (protein)
chain: DDRFLAEQVIRKIKRGNEEAVEKLVERFSRASGVPPEEVLKILLRLLRELGDPEAVEFIEELLRR
B24: il2ra_site2_3nfp_sap_19_mot_HHH_b1_00015_000000185_0001_19_35_H_._HHH_b2_06881_0001_0000400041_0000001_0_0001 (protein)
chain: SSSSSKEERLEELLEKARELLERGNPEEARRVLSELAQLAMELGDIEIFAELAKLFQEELSSSSS

The binders below were run against il2ra, P01589 (assay: yeast display titration).

Apparent Kd, inactive:
B1 no binding seen
B2 no binding seen
B3 no binding seen
B4 no binding seen
B5 no binding seen
B6 no binding seen
B7 no binding seen
B8 no binding seen
B9 no binding seen
B10 no binding seen
B11 no binding seen
B12 no binding seen
B13 no binding seen
B14 no binding seen
B15 no binding seen
B16 no binding seen
B17 no binding seen
B18 no binding seen
B19 no binding seen
B20 no binding seen
B21 no binding seen
B22 no binding seen
B23 no binding seen
B24 no binding seen

Two records picked at random from those above:
Apparent Kd, inactive:
B3 no binding seen
B6 no binding seen
